Where a name gives a salt, the structure may show the parent alone. ± gives the standard deviation of the averaged measurements. The list shows a part of the results. This data set is noisy: repeats of one test often differ as much as different tests do.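 Clinical A. baumannii isolates resistant to the partner antibiotic were chosen, and the screen identifies drugs restoring that antibiotic's activity. Subtracting the initial incubation reading corrects for coloured-compound background.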
These compounds were tested on Acinetobacter baumannii WP-487 (assay: percent growth inhibition of drug + antibiotic vs DMSO control; higher = more growth inhibition). Conditions: antibiotic (0.125x MIC): colistin; 7 µM.
Protocol: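 Prestwick drugs tested at 20 uM and 7 uM with an antibiotic at 0.125x MIC (16 mg/L when MIC >128 mg/L) in cation-adjusted Mueller-Hinton broth, 384-well plates, duplicate runs on different days. Percent growth inhibition was computed from OD600 (24 h minus 0 h) relative to DMSO-only wells. Drug + 0.1% DMSO (no antibiotic) wells are also given. Only hits (max corrected inhibition > mean + 3SD) are listed. A. baumannii: NCTC-13301 was used for MEM/CIP/GEN/TGC and WP-487 for colistin. Duplicates with colistin are strongly discordant (run 2 near 100% for most drugs).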

SMILES | percent growth inhibition [%]
O=c1c2ccccc2[se]n1-c1ccccc1 [Ebselen] | 51.4 ± 55
CC(=O)O[C@H]1CC[C@@]2(C)C(=CC[C@@H]3[C@@H]2CC[C@]2(C)C(=O)CC[C@@H]32)C1 [Dehydroisoandosterone 3-acetate] | -0.867 ± 5
CN1[C@@H]2CC[C@H]1C[C@@H](OC1c3ccccc3CCc3ccccc31)C2 [Deptropine citrate] | 42 ± 59
O=c1[nH]c2ccccc2n1C1CCN(CCCC(c2ccc(F)cc2)c2ccc(F)cc2)CC1 [Pimozide] | 50.6 ± 56
CCC(=O)O[C@H]1CC[C@H]2[C@@H]3CCC4=CC(=O)CC[C@]4(C)[C@H]3CC[C@]12C [Testosterone propionate] | 0.255 ± 6.3
c1ccc2c(c1)Nc1ccccc1S2 [Phenothiazine] | 5.54 ± 2.2
COc1ccc(CCN2CCC(Nc3nc4ccccc4n3Cc3ccc(F)cc3)CC2)cc1 [Astemizole] | 10.8 ± 19
OC(c1ccccc1)(c1ccccc1)C1CCNCC1 [Azacyclonol] | -4.95 ± 8.7
CN(C)C(=O)Oc1ccc[n+](C)c1 [Pyridostigmine iodide] | 47.9 ± 74
Fc1ccc(C(OCCN2CCN(CCCc3ccccc3)CC2)c2ccc(F)cc2)cc1 | 5.15 ± 6.6
CC(Cc1ccccc1)NCCC(c1ccccc1)c1ccccc1 (stereo not given) [Prenylamine lactate] | 5.12 ± 14
CN[C@@H]1C[C@@H](c2ccc(Cl)c(Cl)c2)c2ccccc21 [Indatraline hydrochloride] | 13.9 ± 7.2
Cc1cc(C(C#N)c2ccc(Cl)cc2)c(Cl)cc1NC(=O)c1cc(I)cc(I)c1O (stereo not given) [Closantel] | 52.5 ± 67
CC(C)c1c(CN(C)C(C)Cc2ccccc2)n(C)n(-c2ccccc2)c1=O (stereo not given) [Famprofazone] | -3.84 ± 4.2
C[C@]12CC[C@@H]3c4ccc(OC(=O)N(CCCl)CCCl)cc4CC[C@H]3[C@@H]1CC[C@@H]2O [Estramustine] | 53.7 ± 66

Same assay, conditions: antibiotic (0.125x MIC): colistin; 20 µM

SMILES | percent growth inhibition [%]
O=c1c2ccccc2[se]n1-c1ccccc1 [Ebselen] | 51.7 ± 38
CC(=O)O[C@H]1CC[C@@]2(C)C(=CC[C@@H]3[C@@H]2CC[C@]2(C)C(=O)CC[C@@H]32)C1 [Dehydroisoandosterone 3-acetate] | 49.1 ± 72
CN1[C@@H]2CC[C@H]1C[C@@H](OC1c3ccccc3CCc3ccccc31)C2 [Deptropine citrate] | 52.4 ± 67
O=c1[nH]c2ccccc2n1C1CCN(CCCC(c2ccc(F)cc2)c2ccc(F)cc2)CC1 [Pimozide] | 59.1 ± 47
CCC(=O)O[C@H]1CC[C@H]2[C@@H]3CCC4=CC(=O)CC[C@]4(C)[C@H]3CC[C@]12C [Testosterone propionate] | 46.8 ± 66
c1ccc2c(c1)Nc1ccccc1S2 [Phenothiazine] | 51.8 ± 51
COc1ccc(CCN2CCC(Nc3nc4ccccc4n3Cc3ccc(F)cc3)CC2)cc1 [Astemizole] | 51.1 ± 69
OC(c1ccccc1)(c1ccccc1)C1CCNCC1 [Azacyclonol] | 40 ± 60
CN(C)C(=O)Oc1ccc[n+](C)c1 [Pyridostigmine iodide] | 7.15 ± 15
Fc1ccc(C(OCCN2CCN(CCCc3ccccc3)CC2)c2ccc(F)cc2)cc1 | 57.7 ± 60
CC(Cc1ccccc1)NCCC(c1ccccc1)c1ccccc1 (stereo not given) [Prenylamine lactate] | 53.4 ± 66
CN[C@@H]1C[C@@H](c2ccc(Cl)c(Cl)c2)c2ccccc21 [Indatraline hydrochloride] | 57 ± 61
Cc1cc(C(C#N)c2ccc(Cl)cc2)c(Cl)cc1NC(=O)c1cc(I)cc(I)c1O (stereo not given) [Closantel] | 51.6 ± 55
CC(C)c1c(CN(C)C(C)Cc2ccccc2)n(C)n(-c2ccccc2)c1=O (stereo not given) [Famprofazone] | 48 ± 71
C[C@]12CC[C@@H]3c4ccc(OC(=O)N(CCCl)CCCl)cc4CC[C@H]3[C@@H]1CC[C@@H]2O [Estramustine] | 11.9 ± 2.1

— the supplement of paper PMC6658780
